Record: PubChem BioAssay AID1259308 (NCATS, 2017)
In all, the deposit lists about 59,000 reagents; below is a random part of them. Over the whole deposit, about 1,510 (2.6%) were called active. 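Calls use total luciferase alone and ignore viability, so some active siRNAs may act by altering cell number.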 Entries without a mark were called inactive. The numbers tell different reagents against one gene apart. Not all columns of the deposit are shown.

- Screen: 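Knock-downs that increase output of a recombinant reporter protein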 (primary screen)
- Cell system: human HEK293 embryonic kidney cells stably expressing firefly luciferase (HEK-CMV-Luc2-Hygro)
- Reagent: single siRNA against human genes, 0.8 pmol siRNA per well
- Duration: 72 h
- Detection: 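Luciferase light (ONE-Glo) measured on one replicate plate set and viability (CellTiter-Glo) on the other, scaled to a negative control siRNA, with robust z-scores and luciferase per cell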
- Reading the numbers: total luciferase, z-score and total luciferase, % of control: higher = more reporter protein produced
- Active means: 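Active when the median/MAD z-score for overall luciferase is greater than 3; a gene was taken forward for validation with new siRNAs if at least two of its three siRNAs passed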
- Calls: active = raised luciferase; inactive = no rise

no.	gene symbol	reagent	total luciferase, z-score	total luciferase, % of control
1	MIEF2	1	-0.131	79.3
2	MIEF2	2	1.1	104
3	MIEF2	3	-0.0221	81.4
4	TOP2B	1	0.507	92
5	TOP2B	2	-0.331	75.3
6	TOP2B	3	-0.301	75.9
7	SLC35G5	1	-1.26	56.9
8	SLC35G5	2	0.507	92
9	SLC35G5	3	-0.392	74.1
10	FAM238A	1	3.66 (active)	155
11	FAM238A	2	-0.554	70.9
12	FAM238A	3	0.898	99.8
13	KIF22	1	0.285	87.5
14	KIF22	2	-1.42	53.7
15	KIF22	3	-0.815	65.7
16	VPS13A	1	-1.26	56.9
17	VPS13A	2	-0.62	69.5
18	VPS13A	3	0.252	86.9
19	COL4A2	1	0.228	86.4
20	COL4A2	2	2.08	123
21	COL4A2	3	-1.3	56.1
22	KPNA4	1	-0.789	66.2
23	KPNA4	2	0.48	91.4
24	KPNA4	3	1.15	105
25	AADACL4	1	0.0477	82.8
26	AADACL4	2	2	122
27	AADACL4	3	-0.284	76.2
28	ECHS1	1	0.765	97.1
29	ECHS1	2	0.0249	82.4
30	ECHS1	3	-0.203	77.9
31	CMC1	1	-0.465	72.6
32	CMC1	2	1.14	105
33	CMC1	3	0.734	96.5
34	C6orf52	1	0.202	85.9
35	C6orf52	2	1.11	104
36	C6orf52	3	-1.4	54
37	FYN	1	-0.187	78.2
38	FYN	2	0.0485	82.9
39	FYN	3	-0.7	68
